Results are given in words; binding and its absence hold for the method and conditions named. In cells and extracts the contact can be indirect. Some entries that bind do so weakly or less than the wild type. Tags and fused reporters may be left off the sequences shown.
Biological target: T1, PARK7-Flag (mouse PARK7) (mouse) (UniProt Q99LX0)
T1 sequence: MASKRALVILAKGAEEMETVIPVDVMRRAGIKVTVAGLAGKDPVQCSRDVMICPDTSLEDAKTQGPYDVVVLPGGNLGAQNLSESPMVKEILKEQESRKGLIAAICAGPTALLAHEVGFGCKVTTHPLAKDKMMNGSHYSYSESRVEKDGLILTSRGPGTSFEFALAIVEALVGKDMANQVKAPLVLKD
Test: co-IP; LONP1-GFP and PARK7-Flag cotransfected in HEK293T cells; whole lysate 48 h after transfection (50 mM Tris pH 7.5, 150 mM NaCl, 2 mM EDTA, 1.5% NP40); M2 anti-FLAG antibody and protein G agarose beads; immunoblot

B1: LONP1-GFP (mouse Lon protease homolog, mitochondrial) (enzyme, UniProt Q8CGK3 66-949)
chain: LWDSGNRGGSDETSEGGAEDGATASTGEGPVVTALAPMTVPDVFPHLPLIAITRNPVFPRFIKIVEVKNKKLVELLRRKVRLAQPYVGVFLKRDDNNESDVVESLDEIYHTGTFAQIHEMQDLGDKLRMIVTGHRRIHISRQLEVEPEGLEPEAEKQKSRRKLKRGKKEVEDELGPKPQLEMVTEAATDTSKEVLMVEVENVAHEDFQVTEEVKALTAEIVKTIRDIIALNPLYRESVLQMMQAGQRVVDNPIYLSDMGAALTGAESHELQDVLEETNILKRLYKALSLLKKEFELSKLQQRLGREVEEKIKQTHRKYLLQEQLKIIKKELGLEKDDKDAIEEKFRERLRELVVPKHVMDVVDEELSKLALLDNHSSEFNVTRNYLDWLTSIPWGRQSDENLDLARAQAVLEEDHYGMEDVKKRVLEFIAVSQLRGSTQGKILCFHGPPGVGKTSIARSIARALGREYFRFSVGGMTDVAEIKGHRRTYVGAMPGKIIQCLKKTKTENPLVLIDEVDKIGRGYQGDPSSALLELLDPEQNANFLDHYLDVPVDLSKVLFICTANVIDTIPEPLRDRMEMINVSGYVAQEKLAIAERYLVPQARTLCGLDESKAQLSAAVLTLLIKQYCRESGVRNLQKQVEKVLRKAAYKIVSGEAQTVQVTPENLQDFVGKPVFTVERMYEVTPPGVVMGLAWTAMGGSTLFVETSLRRPQPSGSKEDKDGSLEVTGQLGDVMKESARIAYTYARAFLMEQDPENDFLVTSHIHLHVPEGATPKDGPSAGCTIVTALLSLALGQPVLQNLAMTGEVSLTGKVLPVGGIKEKTIAAKRAGVTCIILPAENRKDYSDLAPFITEGLEVHFVEHYRDIFPIAFPRREHREALAVER
  binding: binds

From article PMC8850466
